Measurements published in patent US10463671B2, “Combination therapy for treating cancer” (Epizyme, Inc., priority 2013, dated 2019).
At least one compound was matched to its structure with a doubt left.

Key:
Assay in all cases: Medium throughput combination proliferation assay (CellTiter-Glo, Chou-Talalay CI / potency shift)
SU-DHL6 cells = type: cell-based; details: SU-DHL6 (EZH2 Mutant GCB); drug combined with Compound 44
WSU-DLCL2 cells = details: for Summary of Combinations with Compound 44: WSU-DLCL2 (EZH2 Mutant GCB), drug combined with Compound 44; for CI range (combination index): WSU-DLCL2, combination with Compound 44 at constant ratio, CI range above Fractional effect of 0.5
SU-DHL-10 cells = details: for Summary of Combinations with Compound 44: SU-DHL10 (EZH2 Mutant GCB), drug combined with Compound 44
DOHH2 cells = tested on: DOHH2 cells
SU-DHL-5 cells = details: for CI range (combination index): SU-DHL-5, combination with Compound 44 at constant ratio, CI range above Fractional effect of 0.5
OCI-LY19 cells = details: OCI-LY-19 (EZH2 WT GCB); drug combined with Compound 44

SMILES | Summary of Combinations with Compound 44 (SU-DHL6 cells) | Summary of Combinations with Compound 44 (WSU-DLCL2 cells) | Summary of Combinations with Compound 44 (SU-DHL-10 cells) | Summary of Combinations with Compound 44 (DOHH2 cells; DOHH2 (EZH2 WT GCB), drug combined with Compound 44) | potency of the glucocorticoid agonist with addition of Compound 44 (DOHH2 cells; DOHH2 EZH2 wild-type cells) | Summary of Combinations with Compound 44 (SU-DHL-5 cells; SU-DHL5 (EZH2 WT GCB), drug combined with Compound 44) | CI range (combination index) (SU-DHL-5 cells) | Summary of Combinations with Compound 44 (OCI-LY19 cells) | CI range (combination index) (WSU-DLCL2 cells) | CI range (combination index) (SU-DHL-10 cells; SU-DHL-10, combination with Compound 44 at constant ratio, CI range above Fractional effect of 0.5)
C[C@@H]1C[C@H]2[C@@H]3CCC4=CC(=O)C=C[C@]4(C)[C@@]3(F)[C@@H](O)C[C@]2(C)[C@@]1(O)C(=O)CO [Dexamethasone] | Synergy | Synergy | Synergy | Synergy | increased | Synergy | 0.42-0.076 | Synergy |  | 
C=CC(=O)N1CCC[C@@H](n2nc(-c3ccc(Oc4ccccc4)cc3)c3c(N)ncnc32)C1 [Ibrutinib] |  | very strong synergy | very strong synergy |  |  |  | 0.22-0.002 |  | 0.39-0.14 | 0.78-0.062
CC(=O)Nc1cccc(-n2c(=O)n(C3CC3)c(=O)c3c(Nc4ccc(I)cc4F)n(C)c(=O)c(C)c32)c1 [Trametinib] |  |  |  |  |  |  | 0.031-0.001 |  | 0.45-0.16 | 
